From patent US20130310313A1
No constants are given. Whether binding was seen depends on the method and setting. Some entries that bind do so weakly or less than the wild type.

By UniProt entry, the sequences of proteins in these tests, tags left out. Residues count along the entry.
UniProt P06213, residues 28-1382: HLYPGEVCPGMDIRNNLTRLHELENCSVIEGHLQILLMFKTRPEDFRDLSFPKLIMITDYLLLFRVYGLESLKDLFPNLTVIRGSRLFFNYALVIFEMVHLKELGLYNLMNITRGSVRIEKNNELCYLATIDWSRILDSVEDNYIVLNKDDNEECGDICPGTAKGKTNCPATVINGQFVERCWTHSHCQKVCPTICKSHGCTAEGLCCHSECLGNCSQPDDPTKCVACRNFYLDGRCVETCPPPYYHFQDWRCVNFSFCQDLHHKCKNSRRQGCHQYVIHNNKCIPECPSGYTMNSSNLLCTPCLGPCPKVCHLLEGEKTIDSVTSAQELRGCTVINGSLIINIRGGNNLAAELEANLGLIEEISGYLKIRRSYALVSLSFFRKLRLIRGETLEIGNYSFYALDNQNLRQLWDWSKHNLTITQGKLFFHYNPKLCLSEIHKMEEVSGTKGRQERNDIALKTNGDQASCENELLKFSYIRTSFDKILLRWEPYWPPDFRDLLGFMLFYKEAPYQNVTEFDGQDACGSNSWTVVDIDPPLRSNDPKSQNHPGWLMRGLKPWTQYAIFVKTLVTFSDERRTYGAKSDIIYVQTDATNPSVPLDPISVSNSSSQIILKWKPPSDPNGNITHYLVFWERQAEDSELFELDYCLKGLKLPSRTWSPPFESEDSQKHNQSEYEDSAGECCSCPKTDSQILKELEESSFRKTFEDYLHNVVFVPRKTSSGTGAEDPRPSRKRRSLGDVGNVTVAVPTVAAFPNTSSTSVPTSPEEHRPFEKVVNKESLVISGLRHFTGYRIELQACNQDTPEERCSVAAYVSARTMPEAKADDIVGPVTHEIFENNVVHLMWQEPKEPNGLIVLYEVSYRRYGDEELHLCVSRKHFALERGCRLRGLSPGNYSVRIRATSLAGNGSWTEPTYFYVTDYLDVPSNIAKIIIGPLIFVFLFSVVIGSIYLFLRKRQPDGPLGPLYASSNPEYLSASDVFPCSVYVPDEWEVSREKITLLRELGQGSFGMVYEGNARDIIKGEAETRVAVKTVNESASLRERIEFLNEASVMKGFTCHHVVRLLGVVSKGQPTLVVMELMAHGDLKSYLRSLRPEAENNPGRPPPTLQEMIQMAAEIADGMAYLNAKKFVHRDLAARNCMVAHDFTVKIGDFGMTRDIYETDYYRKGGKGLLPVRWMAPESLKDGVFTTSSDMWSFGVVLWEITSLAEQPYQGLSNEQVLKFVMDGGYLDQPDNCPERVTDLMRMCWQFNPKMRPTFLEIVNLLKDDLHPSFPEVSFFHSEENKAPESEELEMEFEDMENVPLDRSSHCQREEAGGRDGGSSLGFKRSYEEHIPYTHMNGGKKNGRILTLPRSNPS

B1: IRBP-1-19 (SEQ ID NO:2) (peptide)
peptide: SRCQGKSSWPGLVGSTGAA
B2: IRBP-50-68 (SEQ ID NO:6) (peptide)
peptide: RVRVWVTERGIVARPPTIG
B3: IRBP-1-68 polypeptide (SEQ ID NO:1) (peptide)
chain: SRCQGKSSWPQLVGSTGAAAKAVIERENPRVRAVIIKVGSGATKDFRCDRVRVWVTERGIVARPPTIG
B4: IRBP-60-68 (SEQ ID NO:7) (peptide)
peptide: IVARPPTIG
B5: IRBP-MC (SEQ ID NO:21) (peptide)
peptide: IVARPPAIG

Target: insulin receptor on human lymphocyte cells (IM-9) (human) (UniProt P06213)
Assay: whole cell receptor binding assay on IM-9 cells with 125I-insulin

Row | binding | Binder
1 | binds | B1
2 | binds | B2
3 | binds | B3
4 | binds | B4
5 | binds | B5

Target: insulin receptor on human lymphocyte cells (IM-9) (human) (UniProt P06213)
Assay: insulin receptor autophosphorylation in IM-9 cells, taken by the filing as a sign of binding

Row | binding | Binder
6 | binds | B3
